Measured data: PubChem BioAssay AID504784 (Drosophila RNAi Screening Center, 2011)

Screen: 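Search for regulators of lipid droplet storage in oleate-fed fly cells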 (primary screen)
Cells: Drosophila Kc167 embryonic cells
Reagent: long dsRNA against Drosophila genes, about 250 ng dsRNA per well
Duration: 4 days
Treatment: cells fed 400 µM oleic acid bound to BSA
Measurement: 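Microscope images give a droplet-to-nucleus area ratio, taken as log and converted to a screen-wide B-score; higher values mean greater lipid storage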
Scale: droplet/nuclear area B-score: higher = more stored lipid (overstorage)
In all, the deposit lists about 17,000 reagents; below is an unselected part of those that have a named target and a result. 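Each column is one replicate's B-score; the combined score over replicates was not deposited, so single values may mislead.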 Reagents against one gene are numbered here.

Target gene	reagent	droplet/nuclear area B-score, replicate 1	droplet/nuclear area B-score, replicate 2	droplet/nuclear area B-score, replicate 3
CG34331 (GeneID 33011)	1	0.552	0.541	
Chpf (GeneID 32259)	1	-0.0686	-0.25	-0.879
Chpf (GeneID 32259)	2	0.0559	-1.12	0.75
Nplp1 (GeneID 38003)	1	-0.79	0.695	
baf (GeneID 34095)	1	-1.38	-0.293	
CG6283 (GeneID 43250)	1	-0.0019	-0.125	
tfc (GeneID 38141)	1	0.931	0.764	
tfc (GeneID 38141)	2	-2.49	-1.21	
tfc (GeneID 38141)	3	1.86	-0.00591	
tfc (GeneID 38141)	4	0.552	-0.0345	
Plp (GeneID 3772382)	1	-2.09	-0.247	
Plp (GeneID 3772382)	2	0.415	1.74	
Plp (GeneID 3772382)	3	0.676	-1.08	0.19
krimp (GeneID 36804)	1	-0.349	0.229	
rdog (GeneID 43450)	1	-0.961	2.32	
tsl (GeneID 42564)	1	-0.409	0.93	
GstZ2 (GeneID 41133)	1	1.24	1.26	
CG1695 (GeneID 33046)	1	-0.706	-0.102	
Clc (GeneID 40221)	1	-1.81	-0.629	0.209
alpha-Man-Ia (GeneID 31957)	1	1.67	0.709	
alpha-Man-Ia (GeneID 31957)	2	-1.96	-1.23	-0.734
alpha-Man-Ia (GeneID 31957)	3	-2.49	-1.66	-1.48
alpha-Man-Ia (GeneID 31957)	4	1.1	0.256	5.11
alpha-Man-Ia (GeneID 31957)	5	-2.26	0.956	
Tcs3 (GeneID 39811)	1	0.0349	-0.216	
CG10748 (GeneID 39469)	1	-0.461	-0.884	
Gbp2 (GeneID 36937)	1	0.00417	-0.176	
kug (GeneID 40191)	1	0.557	0.393	0.0229
Ser6 (GeneID 33073)	1	-0.85	-0.00905	
CG10970 (GeneID 31830)	1	0.348	1.14	-0.854
CG10444 (GeneID 37294)	1	-1.41	-0.536	
CG11248 (GeneID 40411)	1	1.33	0.533	0.86
St3 (GeneID 37743)	1	0.0518	-0.35	
CG32121 (GeneID 317867)	1	-2.14	-1.99	
ppk11 (GeneID 34299)	1	0.563	-1.14	
CG31347 (GeneID 318693)	1	0.749	2.15	
CG2310 (GeneID 43473)	1	0.0122	-0.099	
CG13325 (GeneID 36437)	1	0.51	0.661	

Next part (10 carried over from the part before).
Target gene	reagent	droplet/nuclear area B-score, replicate 1	droplet/nuclear area B-score, replicate 2	droplet/nuclear area B-score, replicate 3
Ser6 (GeneID 33073)	1	-0.85	-0.00905	
CG10970 (GeneID 31830)	1	0.348	1.14	-0.854
CG10444 (GeneID 37294)	1	-1.41	-0.536	
CG11248 (GeneID 40411)	1	1.33	0.533	0.86
St3 (GeneID 37743)	1	0.0518	-0.35	
CG32121 (GeneID 317867)	1	-2.14	-1.99	
ppk11 (GeneID 34299)	1	0.563	-1.14	
CG31347 (GeneID 318693)	1	0.749	2.15	
CG2310 (GeneID 43473)	1	0.0122	-0.099	
CG13325 (GeneID 36437)	1	0.51	0.661	
ry (GeneID 41605)	1	0.624	-4.76	
Ddc (GeneID 35190)	1	-1.29	-1.08	
twit (GeneID 35353)	1	0.628	0.627	
MED11 (GeneID 40042)	1	-2.44	-1.99	
MED11 (GeneID 40042)	2	-0.346	1.8	
CG7295 (GeneID 33365)	1	1.22	-0.00689	
Sry-delta (GeneID 43572)	1	0.943		
l(1)G0020 (GeneID 31811)	1	1.02	3.58	
Polr1F (GeneID 33963)	1	1.49	-0.428	
Bfc (GeneID 38138)	1	-1.51	-0.556	
CG3335 (GeneID 39119)	1	-1.31	-1.44	
ppk27 (GeneID 38440)	1	1.05	-1.58	
ppk27 (GeneID 38440)	2	2.98	-0.0678	
Rbf2 (GeneID 41941)	1	0.811	2.56	
CG31248 (GeneID 40853)	1	0.53	1.84	
dsh (GeneID 32078)	1	-1.06	1.24	-0.606
mthl2 (GeneID 38636)	1	0.0118	-1.13	
RN-tre (GeneID 36554)	1	1.85	0.157	
vig2 (GeneID 43016)	1	-0.202	0.0151	
CG14803 (GeneID 31142)	1	0.509	-0.777	
CG14564 (GeneID 40425)	1	-0.434	-1.83	
CG14564 (GeneID 40425)	2	-0.131	1.16	
holn1 (GeneID 34432)	1	0.573	1.05	
holn1 (GeneID 34432)	2	5.89	-1.11	
nudC (GeneID 39879)	1	-1.83	-2.23	
nudC (GeneID 39879)	2	-1.53	-0.0473	
CG12541 (GeneID 31650)	1	-0.82	-0.289	
CG12384 (GeneID 36224)	1	1.41	-0.163	1.19
CG13177 (GeneID 5740215)	1		-0.25	
CG4592 (GeneID 34317)	1	0.00127	0.248	
SmD2 (GeneID 40781)	1	-0.00729	-0.0343	
Ent3 (GeneID 39461)	1	-0.13	0.61	
CG2694 (GeneID 31260)	1	-2.13		
CG18870 (GeneID 59218)	1	1.55	0.643	
Ugt37A3 (GeneID 41574)	1	-1.11	0.78	
Ir100a (GeneID 43753)	1	0.964	-0.469	-0.189
CG14563 (GeneID 40435)	1	1	1.66	
RSG7 (GeneID 32674)	1	0.239	0.36	
RSG7 (GeneID 32674)	2	-1.06	-0.0146	
CG2652 (GeneID 31250)	1	0.0406		2.79
CG2652 (GeneID 31250)	2	0.0484	0.4	
comr (GeneID 37492)	1	-0.837	-0.798	
Usp1 (GeneID 43462)	1	0.77		
CG7156 (GeneID 42187)	1	0.622	-0.897	
CG32152 (GeneID 317885)	1	0.0292	0.115	
